Values from PubChem BioAssay AID652259 (Drosophila RNAi Screening Center, 2013).

Aim: 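Knock-downs that push a Wingless-driven reporter up or down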 (primary screen)
System: Drosophila clone 8 imaginal disc epithelial cells
Reagents: long dsRNA against Drosophila genes
Challenge: pathway stimulated by co-transfected Wingless expression plasmid
Read-out: 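Dual luciferase reads per well after Wingless plasmid stimulation: reporter firefly light and Renilla control light; activity is firefly divided by Renilla, a ratio not deposited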
Scale: firefly reporter light: higher = more Wg reporter light, before normalisation; Renilla control light: higher = more transfected or surviving cells
Active means: 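Strong candidates differ from their plate mean by at least two out of four per-plate statistical tests; weak candidates meet just one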
Meaning of the calls: active = candidate regulator (raises or lowers reporter); inactive = not a candidate
The deposit covers about 22,000 reagents; this is an unselected part of those that have a named target and a result. In the full data, 233 (1.1%) are marked active. 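Light values are raw, unnormalised plate reads; the ratio scores behind the reporter calls were not deposited.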 A plus sign joins genes that one reagent is predicted to hit. Not given: the amount of reagent, the time to read-out, the dose of the treatment.

Against CG1806 [SID104199579], the entry reads firefly reporter light, replicate 1 = 2064; firefly reporter light, replicate 2 = 4361; Renilla control light, replicate 1 = 743; Renilla control light, replicate 2 = 1756; inactive.
With knock-down of HDAC1 (Histone deacetylase 1) [SID104188488], the screen gave firefly reporter light, replicate 1 = 3809; Renilla control light, replicate 1 = 1440; inactive.
CG14641 [SID104192019] showed firefly reporter light, replicate 1 = 7041; Renilla control light, replicate 1 = 2859; inactive.
Silencing of Ccdc85 [SID104180293] gave: firefly reporter light, replicate 1 = 2429; firefly reporter light, replicate 2 = 5811; Renilla control light, replicate 1 = 573; Renilla control light, replicate 2 = 773; inactive.
GstO2 (Glutathione S transferase O2) [SID104190483] scored firefly reporter light, replicate 1 = 2891; Renilla control light, replicate 1 = 1545; inactive.
Knock-down of CG31998 [SID104196929] came out at: firefly reporter light, replicate 1 = 1843; firefly reporter light, replicate 2 = 7185; Renilla control light, replicate 1 = 1040; Renilla control light, replicate 2 = 2336; inactive.
With knock-down of CG31998 [SID104196930], the record shows firefly reporter light, replicate 1 = 16966; Renilla control light, replicate 1 = 14569; inactive.
Silencing of CG32645 [SID104199475] gave: firefly reporter light, replicate 1 = 25289; Renilla control light, replicate 1 = 12649; inactive.
For CG32645 [SID104199681], the values are firefly reporter light, replicate 1 = 17548; Renilla control light, replicate 1 = 9057; inactive.
Nha1 (Na[+]/H[+] hydrogen antiporter 1) [SID104181901] scored firefly reporter light, replicate 1 = 14064; Renilla control light, replicate 1 = 5365; inactive.
For Tpst (Tyrosylprotein sulfotransferase) [SID104198781] the deposit lists firefly reporter light, replicate 1 = 3874; Renilla control light, replicate 1 = 563; inactive.
Silencing of Tpst (Tyrosylprotein sulfotransferase) [SID104199488] gave: firefly reporter light, replicate 1 = 31728; Renilla control light, replicate 1 = 17865; inactive.
Silencing of Tpst (Tyrosylprotein sulfotransferase) [SID104199515] resulted in: firefly reporter light, replicate 1 = 27440; Renilla control light, replicate 1 = 13899; inactive.
For Tpst (Tyrosylprotein sulfotransferase) [SID104199516], the values are firefly reporter light, replicate 1 = 24289; Renilla control light, replicate 1 = 4386; inactive.
With knock-down of Tpst (Tyrosylprotein sulfotransferase) [SID104202034], the record shows firefly reporter light, replicate 1 = 5.57e5; firefly reporter light, replicate 2 = 5.66e5; Renilla control light, replicate 1 = 86858; Renilla control light, replicate 2 = 572; inactive.
CG33309 [SID104181213] gave firefly reporter light, replicate 1 = 19831; Renilla control light, replicate 1 = 8218; inactive.
Knock-down of CG33306 [SID104181691] gave: firefly reporter light, replicate 1 = 5396; Renilla control light, replicate 1 = 2093; inactive.
For Sgs4 (Salivary gland secretion 4) [SID104198507], the values are firefly reporter light, replicate 1 = 21075; Renilla control light, replicate 1 = 13104; inactive.
Silencing of CG31709 [SID104180873] resulted in: firefly reporter light, replicate 1 = 19152; Renilla control light, replicate 1 = 11574; inactive.
Against CG4995 [SID104182593], the values are firefly reporter light, replicate 1 = 16768; Renilla control light, replicate 1 = 5018; inactive.
Knock-down of Lkb1 (Lkb1 kinase) [SID104196273] came out at: firefly reporter light, replicate 1 = 7344; Renilla control light, replicate 1 = 2162; inactive.

Just “Renilla control light, replicate 1”, for 3 of the entries above:
CG33306 [SID104181691]: 2093
Sgs4 (Salivary gland secretion 4) [SID104198507]: 13104
CG31709 [SID104180873]: 11574

Additional results follow.
Knock-down of Polr3H (RNA polymerase III subunit H) [SID104190609] gave: firefly reporter light, replicate 1 = 6552; Renilla control light, replicate 1 = 3369; inactive.
Knock-down of Gbs-76A (Glycogen binding subunit 76A) [SID104190873] resulted in: firefly reporter light, replicate 1 = 7232; Renilla control light, replicate 1 = 2877; inactive.
Arpc3B (Actin-related protein 2/3 complex, subunit 3B) [SID104199918] gave firefly reporter light, replicate 1 = 13521; Renilla control light, replicate 1 = 6921; inactive.
With knock-down of CG10097 + CG10096 [SID104193981], the record shows firefly reporter light, replicate 1 = 4587; Renilla control light, replicate 1 = 2378; inactive.
Silencing of CG10097 + CG10096 [SID104193982] resulted in: firefly reporter light, replicate 1 = 10267; Renilla control light, replicate 1 = 2416; inactive.
Silencing of Pih1D1 (PIH1 domain containing 1) [SID104182689] came out at: firefly reporter light, replicate 1 = 14916; Renilla control light, replicate 1 = 5469; inactive.
Depletion of chm (chameau) [SID104183133] resulted in: firefly reporter light, replicate 1 = 13059; Renilla control light, replicate 1 = 5040; inactive.
With knock-down of CG9864 [SID104187138] the results were firefly reporter light, replicate 1 = 4816; Renilla control light, replicate 1 = 1755; inactive.
For CG3280 (retired record) [SID104190148], the entry reads firefly reporter light, replicate 1 = 6980; Renilla control light, replicate 1 = 3078; inactive.
Against RpS28b (Ribosomal protein S28b) [SID104198050], the entry reads firefly reporter light, replicate 1 = 2620; firefly reporter light, replicate 2 = 5225; Renilla control light, replicate 1 = 579; Renilla control light, replicate 2 = 1981; inactive.
With knock-down of HHEX (Hematopoietically expressed homeobox) [SID104195978], the screen gave firefly reporter light, replicate 1 = 12522; Renilla control light, replicate 1 = 1616; inactive.
